Here are results for 1 molecule from US20230287096A1.

The target of this assay is T1, FAM19A5 epitope fragment F5, conjugated to BSA (human).
T1 sequence (peptide, conjugated to BSA): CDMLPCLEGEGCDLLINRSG
Nature of the assay: ELISA, BSA-conjugated peptide coated on plate. For orientation: An ELISA detects its analyte on a solid surface through an enzyme-linked reagent.

Results are given in words; binding and its absence hold for the method and conditions named. Some binding calls cover weakened binding; strength is not graded here.

B1: Anti-FAM19A5 antibody 1-65 (antibody, V domains shown)
VH: AVTLDESGGGLQTPGGALSLVCKASGFTFSSYQMGWVRQAPGKGLEWVGVINKSGSDTSYGSAVKGRATISRDNGQSTVRLQLNNLRAEDTGTYFCAKGSASYITAATIDAWGHGTEVIVSS
VL: ALTQPSSVSANPGETVKITCSGGGSSGYGYGWYQQKSPSSAPLTVIYWNDKRPSDIPSRFSGSKSGSTHTLTITGVQAEDEAVYFCGNDDYSSDSGYVGVFGAGTTLTVL
On to B1, for which the binding entry is “binds”.
